Measurements from patent US12099068B2, “Biomarkers for graft-versus-host disease” (Incyte Corporation, priority 2018, dated 2024).
Several values for one entry are separate records, joined by “and”; a condition that tells them apart may be missing. Equal entries are not always repeated.

Tests used:
[1] = test system: plasma proteins; assay: OLINK proximity extension assay of baseline plasma, CR compared to PD/Death, updated classification, Example 5 (Table 11); assay type: in vivo, human; details: itacitinib 200 or 300 mg QD plus corticosteroids, response at day 28
[2] = test system: plasma proteins; assay: Proteins of Table 11 stably expressed in complete responders between days 1 and 28, Example 5 (Table 12); assay type: in vivo, human; details: day 1 vs day 28
Procedure: Due to the limited sample size, steroid-naive (N=10) and steroid-refractory (N=18) patients were combined for further analysis. Broad proteomic analysis of over 1000 proteins was conducted by OLINK Proteomics (Watertown, MA) using a proximity extension assay as described by the manufacturer. Data are presented as normalized protein expression (NPX) in log 2 scale. Statistical differences were evaluated using unpaired and paired t tests, one-way […] (ANOVA), and Pearson Correlation. Significance was conferred when P<0.05.

[3] = test system: MCP-3 (CCL7), Reg3A, TNFRSF6B, SCF, CXCL10, IL-8, ST2, CALCA, TNF-R1, IL-6, CCL19, IL-2Ra, and PON3; details: targeted OLINK proximity extension assay; for Protein expression, mean, CR (N = 10) / Protein expression, median, CR (N = 10): Complete Responder group; for Protein expression, mean, PD/Death (N = 7) / Protein expression, median, PD/Death (N = 7): Progressive Disease/Death group

Substance	Fold Change, Down-Regulated in CR Compared to PD/Death [1]	Fold Change (D1 vs D28), proteins Down-Regulated in CR Compared to PD/Death [2]	Fold Change, Up-Regulated in CR Compared to PD/Death [1]	other results
ACE2	−3.7433	1.301	–	–
AREG	−4.8443	–	–	–
CALCA	−5.4107	−1.2293	–	Protein expression, mean, CR (N = 10) [3]: 1826 pg/mL; Protein expression, median, CR (N = 10) [3]: 1456 pg/mL; Protein expression, mean, PD/Death (N = 7) [3]: 5996 pg/mL; Protein expression, median, PD/Death (N = 7) [3]: 3130 pg/mL
CCL5	–	–	2.1066	–
CCL11	–	–	1.3644 and 1.3163	–
CCL19	−2.1313	1.0575	–	Protein expression, mean, CR (N = 10) [3]: 484.9 pg/mL; Protein expression, median, CR (N = 10) [3]: 439.1 pg/mL; Protein expression, mean, PD/Death (N = 7) [3]: 1751 pg/mL; Protein expression, median, PD/Death (N = 7) [3]: 1036 pg/mL
CCL28	–	–	1.4765	Fold Change (D1 vs D28), proteins Up-Regulated in CR Compared to PD/Death [2]: 1.0625
CD207	–	–	1.7751	Fold Change (D1 vs D28), proteins Up-Regulated in CR Compared to PD/Death [2]: 1.0177
CDCP1	−2.792	−1.1249	–	–
CES1	−2.9707	1.1821	–	–
COL4A1	−1.663	–	–	–
CRH	–	–	1.4003	Fold Change (D1 vs D28), proteins Up-Regulated in CR Compared to PD/Death [2]: −1.0445
CTSL1	−3.7378	−1.0288	–	–
CXCL10	−3.5343	−1.6949	–	Protein expression, mean, CR (N = 10) [3]: 307.2 pg/mL; Protein expression, median, CR (N = 10) [3]: 200.6 pg/mL; Protein expression, mean, PD/Death (N = 7) [3]: 920.4 pg/mL; Protein expression, median, PD/Death (N = 7) [3]: 941.8 pg/mL
DSC2	−1.8695	–	–	–
EPHA2	−1.7981	1.0139	–	–
FAM19A5	–	–	1.813	Fold Change (D1 vs D28), proteins Up-Regulated in CR Compared to PD/Death [2]: 1.0841
GAL	–	–	3.0034	–
GCG	–	–	3.904	–
GDF-8	–	–	2.2804	Fold Change (D1 vs D28), proteins Up-Regulated in CR Compared to PD/Death [2]: 1.0733
GH	–	–	2.6866	Fold Change (D1 vs D28), proteins Up-Regulated in CR Compared to PD/Death [2]: −1.0614
Gal-4	−2.0631	–	–	–
HAVCR2	−2.4468	–	–	–

Substance	Fold Change, Down-Regulated in CR Compared to PD/Death [1]	Fold Change (D1 vs D28), proteins Down-Regulated in CR Compared to PD/Death [2]	Fold Change, Up-Regulated in CR Compared to PD/Death [1]	other results
IGFBP3	–	–	1.9044	Fold Change (D1 vs D28), proteins Up-Regulated in CR Compared to PD/Death [2]: 1.1493
IL8	−5.0031	1.6324	–	–
IL-1ra	−1.6115	−1.1696	–	–
KIT	–	–	1.7369	Fold Change (D1 vs D28), proteins Up-Regulated in CR Compared to PD/Death [2]: −1.0943
LEP	–	–	4.402	Fold Change (D1 vs D28), proteins Up-Regulated in CR Compared to PD/Death [2]: 1.133
LILRB4	−1.832	−1.1845	–	–
LY75	–	–	1.3276	–
MBL2	–	–	3.7419	Fold Change (D1 vs D28), proteins Up-Regulated in CR Compared to PD/Death [2]: −1.439
MCP-3	−7.865	1.1945	–	–
NCAM1	–	–	1.6306	–
NCAN	–	–	1.5261	Fold Change (D1 vs D28), proteins Up-Regulated in CR Compared to PD/Death [2]: 1.0838
Notch 3	–	–	1.7306	Fold Change (D1 vs D28), proteins Up-Regulated in CR Compared to PD/Death [2]: 1.1259
PLXNB1	−2.3572	1.1347	–	–
SCF	–	–	3.5978 and 3.5041 and 3.2594	Protein expression, mean, CR (N = 10) [3]: 639 pg/mL; Protein expression, median, CR (N = 10) [3]: 627.6 pg/mL; Protein expression, mean, PD/Death (N = 7) [3]: 283.7 pg/mL; Protein expression, median, PD/Death (N = 7) [3]: 318.4 pg/mL
SIGLEC1	−2.0772	–	–	–
SIGLEC10	−3.8434	–	–	–
SPINK1 (DSLGREAKCYNELNGCTKIYDPVCGTDGNTYPNECVLCFENRKRQTSILIQKSGPC; UniProt P00995 24-79, looked up)	−4.2632	−1.0709	–	–
THBS2	−1.2257	–	–	–
THPO	–	–	2.7391	–
TNFRSF10A	–	1.1052 and 1.0972	–	–
TRAIL-R2	−1.8307	−1.0337	–	–
VSIG4	−2.0226	–	–	–
